Assay results: article PMC7757047
These are yes or no findings as the source states them, for the method shown. Binding seen in cells or lysates may run through a third protein. Some results given as binding are weak or reduced against the parent protein; the word gives no strength.

Sequences of proteins named here, by UniProt entry; tags and fusion partners are left off.
UniProt P35222: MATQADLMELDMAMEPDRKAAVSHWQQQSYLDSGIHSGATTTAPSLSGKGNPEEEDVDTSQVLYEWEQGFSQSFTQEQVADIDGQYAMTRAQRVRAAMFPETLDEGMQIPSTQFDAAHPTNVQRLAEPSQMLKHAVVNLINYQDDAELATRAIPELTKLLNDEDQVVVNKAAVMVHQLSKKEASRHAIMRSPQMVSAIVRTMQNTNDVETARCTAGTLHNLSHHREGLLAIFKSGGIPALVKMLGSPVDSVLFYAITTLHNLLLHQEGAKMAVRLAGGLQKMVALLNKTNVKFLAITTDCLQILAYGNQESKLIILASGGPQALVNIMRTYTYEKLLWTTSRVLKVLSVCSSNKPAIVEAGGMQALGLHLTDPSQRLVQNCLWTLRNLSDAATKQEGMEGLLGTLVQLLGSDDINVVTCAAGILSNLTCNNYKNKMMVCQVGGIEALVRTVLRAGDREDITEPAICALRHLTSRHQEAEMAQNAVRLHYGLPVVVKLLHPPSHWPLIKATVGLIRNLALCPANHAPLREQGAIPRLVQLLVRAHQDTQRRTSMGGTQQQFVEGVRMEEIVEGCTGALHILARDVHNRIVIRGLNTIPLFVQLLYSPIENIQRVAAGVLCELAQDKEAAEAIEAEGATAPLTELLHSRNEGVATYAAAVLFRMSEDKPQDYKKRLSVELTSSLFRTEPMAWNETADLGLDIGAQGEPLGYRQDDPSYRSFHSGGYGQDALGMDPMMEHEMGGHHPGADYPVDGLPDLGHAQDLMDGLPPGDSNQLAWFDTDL
UniProt Q12778: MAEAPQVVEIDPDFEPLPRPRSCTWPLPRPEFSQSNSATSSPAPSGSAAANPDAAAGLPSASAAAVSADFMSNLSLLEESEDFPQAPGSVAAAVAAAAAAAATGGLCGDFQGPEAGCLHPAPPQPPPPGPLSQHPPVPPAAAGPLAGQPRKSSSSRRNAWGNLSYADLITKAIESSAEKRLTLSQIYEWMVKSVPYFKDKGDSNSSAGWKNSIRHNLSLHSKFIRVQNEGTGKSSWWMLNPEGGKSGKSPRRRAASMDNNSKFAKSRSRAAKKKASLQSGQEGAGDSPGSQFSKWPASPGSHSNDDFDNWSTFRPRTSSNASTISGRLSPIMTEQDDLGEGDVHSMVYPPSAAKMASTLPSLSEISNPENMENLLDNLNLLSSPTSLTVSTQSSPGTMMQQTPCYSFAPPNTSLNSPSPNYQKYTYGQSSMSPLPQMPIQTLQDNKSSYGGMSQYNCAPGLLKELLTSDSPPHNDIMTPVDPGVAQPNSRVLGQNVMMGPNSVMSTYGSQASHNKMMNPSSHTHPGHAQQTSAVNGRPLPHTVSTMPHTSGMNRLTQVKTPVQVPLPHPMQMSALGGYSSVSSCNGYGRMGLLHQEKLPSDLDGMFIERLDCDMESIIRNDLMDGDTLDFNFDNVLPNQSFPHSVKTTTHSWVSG

Target: β-catenin (human (endogenous in human keratinocytes)) (UniProt P35222)
Assay: co-IP; immunoprecipitation from human keratinocytes after interference of E-cadherin expression (siEcad); which protein was precipitated is not told; asked whether the two interact in the nucleus

binding: binds
Substance: forkhead box O1 (from UniProt Q12778 1-655)
